In PubChem BioAssay AID2685 (National Center for Advancing Translational Sciences (NCATS), 2010) one finds AC50 and cell number change data, which are given here for 59 compounds.

A short description of this test: qHTS Assay for Lipid Storage Modulators in Drosophila S3 Cells.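 On cell number change: cells counted by Cell Tracker Red CMTPX staining in the red channel.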 The settings on record: BODIPY lipid droplet fluorescence, 18-24 h; for cell number change: measured here: cell count max response, cells fed with added oleic acid. Put shortly:
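Laser-scanning cytometry quantifies lipid droplet accumulation (500–530 nm total intensity; droplet/cell object ratio) in oleic acid-fed (400 uM added) Drosophila S3 cells treated with a concentration series. 20 uM Triacsin C defined 100% inhibition.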
For orientation: In qHTS, concentration-response curves come from the screen itself.

The mark [1] stands for this setting: measured here: lipid fluorescence (Fed channel) AC50, cells fed with added oleic acid.
Setting [2] is: measured here: cell number channel AC50, cells fed with added oleic acid.

Each structure is given as a SMILES string. The list shows a part of the results. These are further read-outs of the screen, such as a control signal, another cell line or another target. No call is given for them. Most of these compounds were active or inconclusive in the main read-out, so they are no random draw. Words in brackets tell the shape of the fitted curve; partial curves, single points and poor fits give uncertain potencies.

Broadly, the AC50 is the concentration giving half of the maximal activity seen. A low value points to greater potency. Take `O=C(NC(Nc1nc2ccc([N+](=O)[O-])cc2s1)(C(F)(F)F)C(F)(F)F)c1ccccc1Cl`: the AC50 under setting [1] was 4.11 µM [falling, partial curve]. For the compound `CCc1ccc2[nH]c(O)c(N=Nc3nc(-c4ccccc4)cs3)c2c1`, the cell number change was -24.8%. Also, the AC50 under setting [1] was 9.2 µM [falling, partial curve].

Take `COC(=O)c1ccc(C)c(NC(=O)CN(c2ccc3c(c2)OCO3)S(C)(=O)=O)c1`: the AC50 is 0.731 µM [rising, single point] under setting [2] and 0.411 µM [rising, partial curve, poor fit] under setting [1]. As to `COC1=C/C(=C/c2c(N)n3nc(CC(=O)N4CCCCC4)sc3nc2=O)C=CC1=O`, under setting [1], the AC50 was 11.6 µM [falling, partial curve]. As for `COc1ccccc1CNC(=O)C1=C(C)C(=O)OC12CCC(C)CC2` (stereo not given), the cell number change was found to be 3.07%. In the case of `Cc1ccc(-c2nc(Nc3ccc(N4CCOCC4)cc3)c3ccccc3n2)cc1`, the cell number change is -53.6%. The AC50 under setting [2] was 9.2 µM [falling, partial curve]. In addition, under setting [1], the AC50 was 11.6 µM [falling, partial curve]. For `COc1cccc(N(C(=O)CNC(=O)c2ccco2)C(C(=O)NC2CCCC2)c2ccncc2)c1` (stereo not given), the AC50 under setting [2] was 4.11 µM [rising, single point].

Take `Cc1nc(Nc2nc3ccccc3o2)nc(C)c1C(=O)Nc1ccc(F)cc1`: the cell number change was -1.31%. In addition, under setting [1], the AC50 was 0.103 µM [falling, full curve, poor fit]. Consider `COc1ccc(-c2cc3ccc(OC)cc3cn2)cc1`, for which the cell number change was 13.4%. In addition, the AC50 under setting [1] was 0.651 µM [rising, full curve, poor fit].

As to `COc1ccc(S(=O)(=O)N2CCCCCC2)cc1C(=O)N1CCN(c2ccccc2C)CC1`, the cell number change was -34.5%. The AC50 under setting [2] was 0.731 µM [falling, partial curve]. Moreover, under setting [1], the AC50 is 1.16 µM [falling, full curve, poor fit]. Turning to `O=c1cc2c(nn1Cc1ccc(Cl)cc1)-c1ccccc1CC2`, the cell number change is -126%. Turning to `O=C(O)C1C2C=CC3(CN(c4cccc(C(F)(F)F)c4)C(=O)C13)O2` (stereo not given), the cell number change is 7.76%. Also, the AC50 under setting [1] was 7.31 µM [falling, partial curve]. As for `C/C(=N/NC(=O)c1ccc(C)s1)c1cccnc1`, the cell number change was -12.4%. Besides, the AC50 under setting [1] was 29.1 µM [rising, single point]. For the compound `O=C(CC(NC(=O)c1ccccc1)c1ccccc1)Nc1ccc(F)c(F)c1` (stereo not given), the cell number change is -92%. Besides, the AC50 under setting [2] was 29.1 µM [falling, single point]. In addition, under setting [1], the half-maximal activity concentration (AC50) was 29.1 µM [falling, single point].

For the compound `COc1ccc(CCNc2nc3ccccc3n3nnnc23)cc1OC`, the cell number change was found to be 8.16%. Moreover, the AC50 under setting [2] is 0.92 µM [rising, full curve, poor fit]. With `Cc1cc(C)c2c(-n3cccc3)c(C(=O)NNS(=O)(=O)c3ccc(Br)cc3)sc2n1`, the cell number change came to 24.4%. Moreover, the AC50 under setting [2] was 0.00411 µM [rising, full curve, poor fit]. Besides, under setting [1], the AC50 is 20.6 µM [rising, single point]. Regarding `O=C(O)CN1C(=O)Nc2ccc(Br)cc2C1c1ccccc1` (stereo not given), the cell number change was found to be 25.3%. Under setting [1], the AC50 is 29.1 µM [rising, single point]. Take `CCOC(=O)CNC(=O)CSc1nc(-c2ccc(C)cc2)ns1`: the cell number change was -13.3%. Moreover, under setting [1], the AC50 was 0.146 µM [rising, partial curve, poor fit]. On to `COc1ccc(OCCCC(=O)ON=C(N)c2ccccc2C)cc1`, for which the cell number change was -19%. In addition, the AC50 under setting [2] is 4.11 µM [falling, single point]. As to `O=C1C(NS(=O)(=O)c2cccs2)=C(N2CCN(c3cccc(Cl)c3)CC2)C(=O)c2ccccc21`, the cell number change was -92.3%. The half-maximal activity concentration (AC50) under setting [2] was 5.8 µM [falling, full curve]. Moreover, the AC50 under setting [1] was 4.61 µM [falling, full curve]. Regarding `COc1ccccc1N1CCN(C(=O)C(C)NC(=O)c2ccco2)CC1` (stereo not given), the cell number change is -1.43%. Moreover, under setting [1], the AC50 is 9.2 µM [rising, partial curve]. As for `CCC(C)(C)NC(=O)C(c1cccc(OC)c1)N(C(=O)CNC(=O)c1cccs1)c1cccnc1` (stereo not given), the cell number change worked out at 18.7%. Consider `CCc1ccc(C(=O)NNC(=O)c2ccc3c(=O)n4c(nc3c2)CCC4)cc1`, for which, under setting [1], the AC50 is 6.51 µM [rising, single point]. For `COC(=O)[C@H]1[C@H]2C[C@@H]3c4[nH]c5cc(OC)ccc5c4CCN3C[C@H]2C[C@@H](OC(=O)/C=C/c2cc(OC)c(OC)c(OC)c2)[C@@H]1OC`, the cell number change came to 20%. As for `CCOC(=O)CN1C(=O)CSc2ccccc21`, the cell number change is 15.1%. For the same compound, the AC50 under setting [1] is 0.92 µM [falling, full curve, poor fit]. Take `O=C1c2cccnc2C(=O)N1Cc1ccc(S(=O)(=O)N2CCOc3ccccc32)cc1`: the cell number change was -12.5%. Further, the AC50 under setting [1] is 0.58 µM [rising, single point]. With `CCCN(CC1CC1)C(=S)NC(=O)c1ccc(S(=O)(=O)N2CCOCC2)cc1`, the cell number change is 14.2%. For `Cc1ccc(-c2ccnc(=S)[nH]2)cc1`, the cell number change was -43.7%. In addition, the AC50 under setting [2] was 23.1 µM [falling, partial curve, poor fit]. Also, the AC50 under setting [1] was 4.11 µM [falling, single point].

For the compound `Cc1ccc(C(=O)N/N=C\c2ccc(-c3ccc(Cl)cc3)o2)cn1`, the cell number change came out at 8.31%. Moreover, the AC50 under setting [2] is 6.51 µM [rising, single point]. In addition, under setting [1], the AC50 is 0.461 µM [rising, partial curve, poor fit].

In the case of `Cc1ccc(-c2c3c(=O)n(C)c(=O)n(C)c3cn2Cc2cccnc2)cc1`, the cell number change is -1.36%. Moreover, the AC50 under setting [1] was 0.651 µM [falling, single point].

Regarding `CC(C)Cc1nn2c(N)c(/C=C3\C=Nc4ccccc43)c(=O)nc2s1`, under setting [1], the AC50 is 0.731 µM [falling, single point].

As to `COCCCNC(=O)CN1CCN(Cc2ccccc2Cl)C1=O`, the AC50 under setting [1] is 6.51 µM [falling, single point].

As to `COc1ccc2[nH]cc(CCNC(=O)Cc3ccc(Br)cc3)c2c1`, the cell number change was -29.9%. The AC50 under setting [1] was 18.4 µM [falling, single point]. On to `COc1ccc(C(=O)COC(=O)CNC(=O)c2ccc(Cl)cc2Cl)c(OC)c1`, for which the cell number change is -5.5%. The AC50 under setting [2] was 0.0517 µM [falling, full curve, poor fit]. `COc1ccc2[nH]c(C)c(C(=O)CN3CCN(C/C=C/c4ccccc4)CC3)c2c1`: under setting [2], the AC50 is 6.51 µM [rising, single point]. For the compound `N#Cc1cccc(S(=O)(=O)NCc2nnc3ccccn23)c1`, the cell number change came to 16%. Moreover, under setting [2], the AC50 was 0.82 µM [falling, full curve]. Moreover, the concentration at half-maximal activity (AC50) under setting [1] was 0.731 µM [falling, full curve].

On to `CN(C(=O)CC1C(=O)NCCN1Cc1ccc2ccccc2c1)C1CCOCC1` (stereo not given), for which the cell number change is -13.5%. `CCC1CC2(C)NC(=O)c3c(sc4c3CC(C)(C)OC4)N2C1=O` (stereo not given): the cell number change is -1.53%. Besides, the AC50 under setting [1] was 0.731 µM [falling, single point]. As for `CCN1CCN(c2nc3c(c(=O)[nH]c(=O)n3C)n2Cc2ccccc2F)CC1`, the cell number change amounted to 19.6%. `Cc1sc(NC(=O)c2ccco2)c(C(c2cccnc2)N2CCC(C)CC2)c1C` (stereo not given): the cell number change stood at 55.5%. Under setting [2], the AC50 is 0.366 µM [rising, full curve]. Further, the AC50 under setting [1] is 0.291 µM [rising, full curve]. As to `COc1ccc(CCn2c(=N)c(C(=O)NC3CCCCC3)cc3c(=O)n4ccccc4nc32)cc1`, the cell number change was determined as 1.42%. The AC50 under setting [1] was 29.1 µM [rising, single point].

As to `COn1c2c(c3c4no[n+]([O-])c4ccc31)CCCC2`, the cell number change came to 87.3%. The AC50 under setting [2] is 6.51 µM [falling, single point]. With `Cc1ccc(N2C(=O)CSC2c2cccs2)cc1` (stereo not given), the cell number change is -7.57%. In addition, the AC50 under setting [1] was 2.31 µM [rising, full curve, poor fit]. `C[C@]12C(=O)N(c3ccc(F)cc3)C(=O)N1[C@@H]1c3ccccc3OC[C@@H]1[C@H]2c1ccccc1`: the cell number change amounted to 3.89%. Also, under setting [1], the AC50 was 29.1 µM [rising, single point].

Consider `CC(=O)N1CCOc2ccc(S(=O)(=O)Nc3cccc(C)c3)cc21`, for which the cell number change turned out to be 8.96%. Take `CC(C)NC(=O)COC(=O)c1cc(Br)ccc1Cl`: the cell number change was 16%. Besides, the AC50 under setting [1] was 5.8 µM [rising, full curve, poor fit]. Turning to `CC(C)(C)NS(=O)(=O)c1ccc(OCC(=O)NCC2CCCO2)cc1` (stereo not given), the cell number change is -8.03%.

Turning to `COc1cccc(NC(=O)c2cc([N+](=O)[O-])ccc2N2CCN(C)CC2)c1`, the cell number change is -25.4%. For the same compound, the AC50 under setting [1] was 29.1 µM [falling, single point]. For `CC1CCCC(NC(=O)CN2C(=O)NC(c3ccccc3)(c3ccccc3)C2=O)C1C` (stereo not given), the cell number change was 53.9%. Also, under setting [2], the AC50 is 14.6 µM [rising, partial curve]. Turning to `CC1CC(C)(C)NC(=S)N1CCC(=O)NCCc1ccc(Cl)cc1` (stereo not given), the cell number change was found to be 108%. In addition, the AC50 under setting [2] is 18.4 µM [rising, single point]. As for `O=C(c1ccccc1)c1c(O)nc(-c2ccccc2)n(-c2ccccc2)c1=O`, the cell number change was -33.3%. The AC50 under setting [2] was 29.1 µM [falling, single point]. Further, the AC50 under setting [1] is 11.6 µM [rising, partial curve]. `N#Cc1ccc(OCC(=O)N2CCCC2=O)cc1`: the cell number change is -6.49%. Take `CS(=O)(=O)N1CCN(c2ccc([N+](=O)[O-])c(NCc3cccnc3)c2)CC1`: the AC50 under setting [1] was 29.1 µM [falling, partial curve]. Take `Cc1[nH]c2ccccc2c1C(=O)COC(=O)c1c(-c2c(F)cccc2Cl)noc1C`: the cell number change is -20.7%. Further, under setting [1], the AC50 is 18.4 µM [falling, single point]. With `c1ccc2nc(N3CCOCC3)cnc2c1`, the cell number change amounted to 64.2%. In addition, the AC50 under setting [2] was 13 µM [rising, partial curve].

For the compound `Brc1cccc(-c2nnc3sc(CN4CCCCC4)cn23)c1`, the cell number change came to 24%. Besides, under setting [1], the AC50 was 2.06 µM [rising, single point]. Take `COc1ccc(/C=C\C(=O)CC(O)(c2ccccc2)C(F)(F)F)cc1` (stereo not given): the cell number change was -16.4%. For the same compound, the AC50 under setting [1] was 3.26 µM [rising, single point].

With `O=C(c1noc2c1CCCC2)N1CCN(c2ccccc2)CC1`, the cell number change is 1.76%. For the same compound, the AC50 under setting [1] is 29.1 µM [rising, single point]. Take `CN1CC[n+]2c(CN3C(=O)c4ccccc4C3=O)csc21`: the cell number change is -13.3%. Besides, the AC50 under setting [1] is 0.731 µM [falling, full curve].
